## Primary screen of a compound library

The filed quantity is “Percent Effect” (%). The record does not define 0% and 100%; most values in the screen are far below 50% and negative numbers occur (in some assays of this library far below -100). This is an unselected part of the compounds tested.

Mtb glucose medium: 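Whole-cell growth test on Mycobacterium tuberculosis, read after 3 days in glucose-containing 7H9 medium; the read-out is not stated. Compounds at 500 µM. Direction is inferred from retests: higher values go with more growth inhibition. Of about 18,000 compounds tested this way, about 1,400 (7.9%) reached 50% or more in at least one test.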
Mtb cholesterol medium: 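Phenotypic screen: M. tuberculosis growth, cholesterol and DPPC medium, 4 days; the read-out is not stated. Concentration: 500 µM. Higher reads as more growth inhibition (inferred: compounds with an IC50 in retests scored well above the rest). About 18,000 compounds were tested under these conditions; 5% (about 900) showed 50% or more at least once.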

Result for CC(C)(C)OC(=O)NCC1CNC(=O)C1 (stereo not shown) was Mtb glucose medium: 2.148%; Mtb cholesterol medium: 5.32%.
Result for COc1nc(N)n[nH]1 was Mtb glucose medium: -10.24%; Mtb cholesterol medium: -1.79%.
Result for N[C@@H]1CC[C@@H]1NC(=O)c1ccc(Cn2cnnn2)cc1 was Mtb glucose medium: 15.43%; Mtb cholesterol medium: 6.255%.
Result for CSCCC(=O)NCc1ccc(C)s1 was Mtb glucose medium: 62.21%; Mtb cholesterol medium: 31.04%.
Result for Cc1cc(C)n(CCC(=O)NCc2ccccn2)n1 was Mtb glucose medium: 20.18%; Mtb cholesterol medium: 7.073%.
Result for CC(=O)CC1COCCN1S(=O)(=O)c1cccc(F)c1 (stereo not shown) was Mtb glucose medium: 4.776%; Mtb cholesterol medium: -3.159%.
Result for O=C(CN1CCN(c2ccccc2)CC1)N1CCCC1 was Mtb glucose medium: 50.64%; Mtb cholesterol medium: 29.94%.
Result for C=C(C)CN(CC)CC(=O)NCc1ccccn1 was Mtb glucose medium: 4.294%; Mtb cholesterol medium: -0.3846%.
Result for O=C1CCC(NS(=O)(=O)Cc2c(Cl)cccc2Cl)CN1 (stereo not shown) was Mtb glucose medium: 20.34%; Mtb cholesterol medium: 5.69%.
Result for CCCNC1CCOCC1 was Mtb glucose medium: 5.343%; Mtb cholesterol medium: 0.4301%.
Result for C1CCN(CCOC2CCNC2)C1 (stereo not shown) was Mtb glucose medium: -12.96%; Mtb cholesterol medium: -16.66%.
Result for CNS(=O)(=O)c1ccc(NCc2ccco2)cc1OC was Mtb glucose medium: 67.25%; Mtb cholesterol medium: 85.58%.
Result for CCc1nc(C)c(CNC(=O)CN2CCCC(O)C2)s1 (stereo not shown) was Mtb glucose medium: 12.31%; Mtb cholesterol medium: 0.08569%.
Result for CC(c1ccon1)N(C)C(=O)Cc1ccsc1 (stereo not shown) was Mtb glucose medium: 20.25%; Mtb cholesterol medium: 7.298%.
Result for O=C1C=CC(=O)N1c1cccc(F)c1 was Mtb glucose medium: 6.334%; Mtb cholesterol medium: 7.659%.
Result for CCN1CCC(NC(=O)c2ccc(F)cc2F)CC1 was Mtb glucose medium: -3.267%; Mtb cholesterol medium: -12.73%.
Result for CCS(=O)(=O)NCCCN(C)C1CCSC1 (stereo not shown) was Mtb glucose medium: -0.7365%; Mtb cholesterol medium: -14.17%.
Result for Cc1nccn1-c1ccc(C(C)N)cc1 (stereo not shown) was Mtb glucose medium: 8.207%; Mtb cholesterol medium: 4.773%.
Result for CC(C)N(CCN)C1CC1 was Mtb glucose medium: 22.22%; Mtb cholesterol medium: 17.54%.
Result for CCn1ncc(N)c1C was Mtb glucose medium: 13.96%; Mtb cholesterol medium: 8.75%.
Result for CC(C)(CNS(=O)(=O)c1ccccc1)NS(C)(=O)=O was Mtb glucose medium: 23.7%; Mtb cholesterol medium: 3.949%.
Result for CN(CC(N)=O)Cc1ccccc1N1CCCC1 was Mtb glucose medium: 55.75%; Mtb cholesterol medium: 43.67%.
Result for C1CC(c2nnc(CN3CCCC3)o2)C1 was Mtb glucose medium: 40.43%; Mtb cholesterol medium: 43.14%.
Result for CCC(NC(=O)CCCN1CCCC1)c1cnn(C)c1 (stereo not shown) was Mtb glucose medium: 7.271%; Mtb cholesterol medium: 4.097%.
Result for CCN1CCC(NC(=O)c2c(C)noc2C(C)C)CC1 was Mtb glucose medium: -4.252%; Mtb cholesterol medium: 2.071%.
Result for O=C1NCCNC1c1ccc2c(c1)OCO2 (stereo not shown) was Mtb glucose medium: 8.035%; Mtb cholesterol medium: 2.223%.
Result for NC(=O)C1CNCCO1 (stereo not shown) was Mtb glucose medium: 2.853%; Mtb cholesterol medium: 3.995%.
Result for CCN(CC(C)C#N)Cn1ncc2ccccc2c1=O (stereo not shown) was Mtb glucose medium: 8.834%; Mtb cholesterol medium: 1.131%.
Result for CNCCn1c(=O)oc2ccccc21 was Mtb glucose medium: 6.058%; Mtb cholesterol medium: 2.308%.
Result for COc1ccc2nc(NCC(O)CO)ccc2c1 (stereo not shown) was Mtb glucose medium: 0.5734%; Mtb cholesterol medium: 2.559%.
Result for Nc1ccc(CN2CCCC2)cn1 was Mtb glucose medium: -2.208%; Mtb cholesterol medium: -19.18%.

The first 4 entries again:

{"structure": "CC(C)(C)OC(=O)NCC1CNC(=O)C1", "stereo": "stereo not shown", "Mtb glucose medium": 2.148, "Mtb cholesterol medium": 5.32}
{"structure": "COc1nc(N)n[nH]1", "Mtb glucose medium": -10.24, "Mtb cholesterol medium": -1.79}
{"structure": "N[C@@H]1CC[C@@H]1NC(=O)c1ccc(Cn2cnnn2)cc1", "Mtb glucose medium": 15.43, "Mtb cholesterol medium": 6.255}
{"structure": "CSCCC(=O)NCc1ccc(C)s1", "Mtb glucose medium": 62.21, "Mtb cholesterol medium": 31.04}

The values are deposited in ChEMBL (CHEMBL3988442, “University of Dundee, Small-Polar-MMV Screening Library” (2021)).